## Library screening results

The filed quantity is “Percent Effect” (%).
The record does not define 0% and 100%; most values in the screen are far below 50% and negative numbers occur (in some assays of this library far below -100).
Compounds were drawn at random from those tested, without regard to their results.
A dash means the value is not listed here; it may have been measured.

Mtb growth Cornell: 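Whole-cell assay for inhibitors of Mycobacterium tuberculosis growth, labelled Cornell in the record; the read-out is not stated. The concentration is filed as 10 mM, unlikely as a test dose, so the dose is not known. The record gives no direction; compounds strong in two other growth screens of this library score well above the rest, so higher reads as stronger inhibition. About 53,000 compounds were tested under these conditions; 1.7% (about 900) showed 50% or more at least once.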
Mtb heat-shock: 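Assay on Mycobacterium tuberculosis, filed only as a heat shock assay from Cornell; the read-out is not stated. The concentration is filed as 10 mM, unlikely as a test dose, so the dose is not known. Higher reads as stronger inhibition (inferred: compounds with an IC50 in retests scored well above the rest). Size under these conditions: about 69,000 compounds, about 930 of them at 50% or above in at least one test.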

| Compound | Mtb growth Cornell | Mtb heat-shock |
|---|---|---|
| `COc1ccc(CN2CCCC2Cn2nc(C)nc2C)cc1F` (centres unmarked) | - | 1.446% |
| `Cc1cnn(CC2CN(Cc3csc(C4CCCC4)n3)CCO2)c1` (centres unmarked) | 23.85% | 2.632% |
| `CSc1cccc(CC(=O)N[C@@H]2CCNC[C@H]2O)c1` | -37.82% | -26.66% |
| `COc1ccc(NCCC(=O)NCc2cccnc2N(C)C)cc1` | -12.93% | -5.675% |
| `CC(C)CS(=O)(=O)CC(=O)NC1CCCCNC1=O` (centres unmarked) | - | 1.592% |
| `Cc1occc1C(=O)N1CCCN(Cc2nccn2C(C)C)CC1` | - | -7.454% |
| `Cc1cccc(C2(O)CCN(C(=O)c3ccc(N(C)C)cc3)CC2)c1C` | -15.44% | -27.84% |
| `Cc1cc(C)n(CC2CN(Cc3cccnc3)CCO2)n1` (centres unmarked) | -24.97% | -8.802% |
| `[H][C@@]12C[C@H](C(=O)NC(C)C)[C@@]([H])(CN(C(=O)NC(C)C)C1)O2` | -4.349% | 4.784% |
| `c1cc(CN2CCCC2)cc(-n2ccnc2-c2ccncc2)c1` | - | -27.15% |
| `Cc1cc(N2CCN(Cc3ccnn3C)CC2)cc(C2CCCN2)n1.Cl` (centres unmarked) | -43.54% | -17.02% |
| `O=C(O)C(F)(F)F.[H][C@@]12CN(Cc3cccc(C)n3)C[C@]1([H])C(=O)N(CCOC)C2` | 15.97% | -13.93% |
| `Cc1ccc(C(=O)NCCCN2CCOCC2)c(Cl)c1` | 4.659% | -40.84% |
| `Cc1cnc(-c2nc(O)c3c(n2)CN(C(=O)CC2CCCC2)CC3)cn1` | 2.725% | 10.73% |
| `CC(C)N1CCN(C)CC1c1nnc2ccc(C(=O)N3CCCC3)cn12` (centres unmarked) | -3.354% | -8.458% |
| `CC(C)N(CCS(C)(=O)=O)Cc1csc(-c2ccccc2F)n1` | 3.593% | -12.07% |
| `CCN1CCCCC1C(=O)N1CCC(OCCOC)CC1` (centres unmarked) | 26.46% | -2.548% |
| `CN1CCC/C1=N\S(=O)(=O)c1ccc(NC(=O)c2ccc(Cl)cc2)cc1` | - | -4.489% |
| `O=C(O)c1cc2c(nc1O)CC(c1cccc(Cl)c1)CC2=O` (centres unmarked) | - | 19.82% |
| `CC(C)n1cnnc1CN(C)C(=O)c1ccccc1-n1cncn1` | - | -8.409% |
| `O=C(NCCN1CCc2ccccc2C1)c1scnc1Cl` | 22.16% | -8.69% |
| `CCc1cc(NCCCNS(C)(=O)=O)nc(-c2ccncc2)n1` | -5.442% | -1.348% |
| `CN1C[C@@H](N)C[C@H]1C(=O)N1CCC(CCCc2ccccc2)CC1` | 48.33% | 8.176% |
| `CC(C)CN(CC(O)c1ccc(F)cc1)C(=O)c1cnsn1` (centres unmarked) | 13.71% | -4.357% |
| `Cc1c(CNS(=O)(=O)c2cccc(COC(C)C)c2)cnn1C` | - | -7.89% |
| `Cc1ccc(NC2CCN(C(=O)c3c(C)oc(C)c3C)CC2)nn1` | - | 17.02% |
| `CCC(C)(COc1ncccc1Cl)NCC(=O)Nc1ccc(Br)cn1` (centres unmarked) | 0.5516% | -17.05% |
| `O=C(NCCc1cccnc1)NC1CCOC2(CCCCC2)C1` (centres unmarked) | -19.68% | -8.645% |
| `CC(C)n1cnc(C2CN(C)c3ccc(C(=O)NCC4CC4)cc32)n1` (centres unmarked) | -5.815% | 15.65% |
| `Cc1ccc(CCNC(=O)Cn2nc(C)n(Cc3ccccc3)c2=O)o1` | - | -41.67% |
| `COCC(=O)N1CCC2(CC1)COCCN2Cc1ccc(F)cc1.O=C(O)C(F)(F)F` | -0.08238% | -40.97% |
| `NC(=O)C(NC(=O)c1cc(Cl)c[nH]1)c1ccccc1` (centres unmarked) | - | 20.19% |
| `Cc1noc(C2CCCCN2C(=O)NC2CCCC2)n1` (centres unmarked) | -5.491% | -6.185% |
| `CC(=O)Nc1nc(CN(C)C2CCCN(c3cccnn3)C2)cs1` (centres unmarked) | - | -10.71% |
| `N#CCCCS(=O)(=O)NC1(c2cccc(Br)c2)CC1` | 26.36% | -1.378% |
| `Cc1ccc(N2CCC3(CCN(Cc4csc(C)n4)C3=O)C2)nn1` (centres unmarked) | -13.02% | 39.25% |
| `CN(C)CCCNC(=O)c1ccccc1NC(=O)c1ccccc1Cl` | 2.69% | -19.52% |
| `C=C(C)CN1CCC(NC(=O)c2scnc2C)CC1` | -40.48% | 7.994% |
| `c1ccc(-c2cnc(CN3CCCC3Cn3cncn3)o2)cc1` (centres unmarked) | -0.5778% | 13.62% |
| `CC(=O)c1cccc(OCCCC(=O)N(C)CCC(F)(F)F)c1` | 18.14% | -3.337% |
| `O=C(CN1CCN(C(=O)c2ccccc2)CC1)Nc1ccc(Br)cn1` | 21.42% | -9.576% |
| `CC(NCc1nnc2n1CCCC2)c1nc(Cc2ccccc2)no1` (centres unmarked) | - | -19.86% |
| `N#CC(NC(=O)CCCOc1cccnc1)c1ccccc1Cl` (centres unmarked) | 13.65% | -13.09% |
| `CC(C)(C)C(NCC(=O)N1CCNC(=O)C1)c1ccccc1` (centres unmarked) | 7.059% | -13.62% |
| `CC1CN(C)CCN1C(=O)c1cccn1Cc1cccs1` (centres unmarked) | - | -19.11% |
| `Cl.N[C@@H](Cc1ccccc1)c1nnc(S(=O)(=O)Cc2ccc(Cl)cc2)o1` | -9.825% | -31.2% |
| `CC(=O)N(C)CC(=O)NCC1CCN(c2cc(Cl)ccc2C)C1` (centres unmarked) | - | 14.37% |
| `CNC(=O)N1CCN(C(=O)C(C)C)CC2(CC(=O)N(C)C2)C1` (centres unmarked) | 14.66% | -14.37% |
| `COc1ccc(-c2cc(C(=O)NCCCn3ccnc3C)n(C)n2)cc1` | 5.289% | 13.35% |
| `Cc1ccc2c(c1)C(=O)NCC1(CCN(C(=O)c3sccc3C)CC1)O2` | -4.951% | -2.142% |
| `O=C(O)c1ccccc1-c1ccc(Cn2c(=O)cc[nH]c2=O)cc1` | 5.434% | 9.219% |
| `CCc1nc(C2CCCN2Cc2cnc(C)cn2)no1` (centres unmarked) | - | -1.341% |
| `Cc1cc(C(=O)N[C@H]2COC[C@@H]2N2CCOCC2)c2ccc(F)cc2n1` | 8.243% | 3.529% |
| `CNc1snc(C)c1C(=O)N1CCC(Nc2ccc(C)nn2)CC1` | - | -14.97% |
| `Cc1cc(=O)n(CC(=O)NCC2CCCO2)c(-c2ccc(F)cc2)n1` (centres unmarked) | -2.361% | -1.772% |
| `CN(C)CCNc1ccc(-c2nc(-c3ccccc3F)no2)cn1` | 22.16% | 6.719% |
| `O=C(Cn1ncc(N2CCNCC2)cc1=O)NCCc1ccc(F)cc1` | -18.66% | 6.22% |
| `O=C(O)c1c(Cl)ncn1-c1cccc2ccccc12` | 19.97% | -3.587% |
| `COCC(=O)N1CC2=CC(C)(C)COc3ccc(OC)c(c32)C1` | -3.645% | -23.51% |
| `COc1ccc(-c2ccc(C(=O)NS(C)(=O)=O)c(F)c2)cc1` | 24.32% | -2.319% |
| `Cc1nc(-c2nnc[nH]2)sc1C(=O)N1CCCC1Cn1cccn1` (centres unmarked) | -32.41% | 0.8681% |
| `O=C(CCc1cccc(F)c1F)N1CCCC(n2cncn2)C1` (centres unmarked) | 5.232% | 1.548% |
| `[H][C@@]12COC[C@]1(COc1ccc(C#N)cn1)CN(Cc1ccoc1)C2` | -11.66% | -20.88% |
| `CCCn1cc(C(=O)NCCc2ccc3c(c2)OCO3)c(C)n1` | 20.58% | 20.82% |
| `CCCN1CCC(Nc2nc(CC)ns2)CC1` | - | -34.2% |
| `O=C(c1cccs1)N1CCC(Cn2nc(-c3ccco3)ccc2=O)CC1` | 12.23% | 47.8% |
| `COCCN1CCN(CC2(O)CCCCC2)CC1` | 4.368% | -13.33% |
| `O=C(O)Cn1nc(C2CC2)c2c(-c3ccc(F)cc3)ccnc21` | 27.89% | 11.68% |
| `O=C(O)C(F)(F)F.O=C(O)C(F)(F)F.[H][C@@]12OCCN(Cc3ccc(F)cc3)[C@@]1([H])CC[C@H]2OCc1ccncc1` | -6.068% | 22.03% |
| `CC(C)(C)C(O)CN1CCN(CC(=O)NC2CCOCC2)CC1` (centres unmarked) | - | -11.18% |
| `CC(C)N(C)Cc1ccccc1CNc1ccc2nncn2n1` | -7.834% | -1.277% |
| `OCCN1CCC(F)(F)C2(CCN(c3cccnc3)C2)C1` (centres unmarked) | -15.6% | 24.52% |
| `CCOc1ccccc1C(=O)N1CCCC1c1ncc2c(n1)CCNC2.Cl` (centres unmarked) | - | -17.96% |
| `O=S(=O)(CCNC1CCc2ncnn2C1)c1ccccc1` (centres unmarked) | 5.199% | -8.66% |
| `COCC(=O)NCC[C@H]1CC(C)(C)Oc2ccc(OC)cc21` | 10.1% | -5.535% |
| `CCc1c(C)nc2ccccc2c1N1CCC(O)CC1` | - | 2.672% |

For reference, 6 entries once more:

Compound	Mtb growth Cornell	Mtb heat-shock
O=C(NCCN1CCc2ccccc2C1)c1scnc1Cl	22.16%	-8.69%
Cc1ccc2c(c1)C(=O)NCC1(CCN(C(=O)c3sccc3C)CC1)O2	-4.951%	-2.142%
CC(C)N(C)Cc1ccccc1CNc1ccc2nncn2n1	-7.834%	-1.277%
CC(=O)Nc1nc(CN(C)C2CCCN(c3cccnn3)C2)cs1 (centres unmarked)	-	-10.71%
c1ccc(-c2cnc(CN3CCCC3Cn3cncn3)o2)cc1 (centres unmarked)	-0.5778%	13.62%
Cc1cnc(-c2nc(O)c3c(n2)CN(C(=O)CC2CCCC2)CC3)cn1	2.725%	10.73%

From ChEMBL document CHEMBL3988442, “University of Dundee, Small-Polar-MMV Screening Library” (2021).